# Measured values: article PMC7819943, “Rice protein-binding microarrays: a tool to detect cis-acting elements near promoter regions in rice”
# This is one part of the list.
# Target: T1, OsSMF1 (Oryza sativa, UniProt Q6ZLB0 1-436)
# T1 sequence: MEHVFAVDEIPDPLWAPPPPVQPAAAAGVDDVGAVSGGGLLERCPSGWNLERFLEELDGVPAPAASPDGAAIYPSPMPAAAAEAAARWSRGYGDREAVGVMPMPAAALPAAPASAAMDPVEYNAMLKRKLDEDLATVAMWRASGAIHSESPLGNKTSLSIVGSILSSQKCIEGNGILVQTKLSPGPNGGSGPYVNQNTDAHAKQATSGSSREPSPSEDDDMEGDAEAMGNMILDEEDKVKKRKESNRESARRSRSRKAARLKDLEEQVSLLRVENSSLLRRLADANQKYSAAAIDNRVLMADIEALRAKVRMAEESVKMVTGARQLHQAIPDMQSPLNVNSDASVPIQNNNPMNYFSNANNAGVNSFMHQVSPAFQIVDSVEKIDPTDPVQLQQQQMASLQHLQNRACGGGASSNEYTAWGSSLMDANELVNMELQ
# Assay: protein-binding microarray (RPBM); PBS, 2% BSA, 51.3 ng/ul salmon testes DNA, 50 uM zinc acetate, 200 nM TF, 25 C, 1 h; high values mean tight binding
# Conditions: protein: recombinant; tags: N-terminal polyhistidine and DsRed monomer fusion (pET32a); chain copies: 2; label: CyDye5-dUTP incorporated in the synthesized complementary strand; 3' TTTTT single-stranded linker to array surface; dsDNA, one strand shown
# In short: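 Using Ni–NTA, transcription factors fused N-terminally to polyhistidine and DsRed were purified after expression in E. coli BL21-CodonPlus. These were incubated at 200 nM with a blocked, double-stranded custom Agilent array for 1 h at 25 °C in a buffer containing 50 µM zinc acetate, and the array was washed. The binding signal is per-feature fluorescence intensity (arbitrary units) on an Axon 4000B scanner.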
row,Sequence,binding signal
1,GATAATTAAGCTGATAGCGAGACATAACAAGCTCTGTTCTCGGAGTCACCTAGTGCAG,49600 fluorescence intensity (a.u.)
2,AATTTTAACGCGAACTAGACACACCCAAAATGAGTCTGGTCGGAGTCACCTAGTGCAG,33800 fluorescence intensity (a.u.)
3,CTACGCGATGAAAGTATCTGTCATCACGCCATCATCCACTCGGAGTCACCTAGTGCAG,5640 fluorescence intensity (a.u.)
4,CTCCCCGCCTCGTTCCCGTTGAGCTCGCCGCCGCTAATATCGGAGTCACCTAGTGCAG,5580 fluorescence intensity (a.u.)
5,GCGCTGACCGTGGTCAAAGCGCCACGTCGGACTAAACCGCCGGAGTCACCTAGTGCAG,19700 fluorescence intensity (a.u.)
6,TAAGTTTAGTAGTTGAGTCATACATCTATCTCATATAAGTCGGAGTCACCTAGTGCAG,5100 fluorescence intensity (a.u.)
7,ATGTTCAATGGCGGCATTTTATTCTTGACTGGACGATTATCGGAGTCACCTAGTGCAG,3310 fluorescence intensity (a.u.)
8,CCTTCCATGGTGGTCGCCCACATGGCATAGAGCTCACAAGCGGAGTCACCTAGTGCAG,3200 fluorescence intensity (a.u.)
9,GCCGGCGGCAGGGTGGGGCGGGGACGCCTGCCGGCGTCGGCGGAGTCACCTAGTGCAG,3570 fluorescence intensity (a.u.)
10,ATCTAGCACGAACGGCTAGGATGCTCTGCCGGGTCAGCCCCGGAGTCACCTAGTGCAG,6420 fluorescence intensity (a.u.)
11,CACTGCAATGACTAGATTACGTGCTCTTTCGCAACCCATACGGAGTCACCTAGTGCAG,5140 fluorescence intensity (a.u.)
12,ACATTGACACTAGAATTTAAACTCTGGTAGGTAGAGTCATCGGAGTCACCTAGTGCAG,3200 fluorescence intensity (a.u.)
13,ACATATAATTGCCACGTCAGCGCCACATCAATGCCACGTGCGGAGTCACCTAGTGCAG,26100 fluorescence intensity (a.u.)
14,ATGGTAATCATTGTGGGTGGCATTCAAATATGACGCAGATCGGAGTCACCTAGTGCAG,4670 fluorescence intensity (a.u.)
15,AACCACAACCTGCCACGTACTCTACTCTACCCGCCGCGCGCGGAGTCACCTAGTGCAG,12000 fluorescence intensity (a.u.)
16,GGGTATCATGGTTGGTACTCACACGTATTAGATCTGGTACCGGAGTCACCTAGTGCAG,3160 fluorescence intensity (a.u.)
17,TGTCATTACAGCCCTGTCACCTCAAGAAATCATGGAACTGCGGAGTCACCTAGTGCAG,3940 fluorescence intensity (a.u.)
18,CCAAGCTCTCCAAATTAACGGGTCATAGGTCGTGCCTGGCCGGAGTCACCTAGTGCAG,20500 fluorescence intensity (a.u.)
19,AAAGCTTGCGCACGCCACGTCGCCGGCCTCGAGTCGACGACGGAGTCACCTAGTGCAG,8800 fluorescence intensity (a.u.)
20,TTTTGACATGCCACCTCTCCAATCTTCATGTCCATCTTTGCGGAGTCACCTAGTGCAG,3300 fluorescence intensity (a.u.)
21,TCGCTAATAAATCATATGATGTCATGGGCCCGAGACATCTCGGAGTCACCTAGTGCAG,4000 fluorescence intensity (a.u.)

row,Sequence,binding signal
1,GCCGACCAACCGGTGACTAGACTACCATACTGGTACAGTGCGGAGTCACCTAGTGCAG,7400 fluorescence intensity (a.u.)
2,GAAGAAGCCAAGGTTGTCTCACTCCCAGAAGACCATACACCGGAGTCACCTAGTGCAG,23900 fluorescence intensity (a.u.)
3,GTACGGTGCCACGCACGGCTCTCGTCCTTTATATAAACCACGGAGTCACCTAGTGCAG,4430 fluorescence intensity (a.u.)
4,TTCTATTTATATCATTGCATAATCATACAGGCCATCTTGCCGGAGTCACCTAGTGCAG,3630 fluorescence intensity (a.u.)
5,AAAACAGGGGTCCACACAGTGACGCCACATGGCTGCTAAACGGAGTCACCTAGTGCAG,3260 fluorescence intensity (a.u.)
6,ATAGCCAAGCAAAATGTGTATCCTAAATGACGTGACAGGGCGGAGTCACCTAGTGCAG,4590 fluorescence intensity (a.u.)
7,ATCCGTTGAAATTTACACAAATAATCCCACTAAAATATATCGGAGTCACCTAGTGCAG,19300 fluorescence intensity (a.u.)
8,ATGGTTTGGAATTGTCACTACACTTTACTAAATTCATAGTCGGAGTCACCTAGTGCAG,3420 fluorescence intensity (a.u.)
9,AATCCGGTCCGTCCACGTGTAAACCGGCTCGGGTCGGGCTCGGAGTCACCTAGTGCAG,10200 fluorescence intensity (a.u.)
10,CCGGCGGAAGAATTTGCAATCAGAATGATTGTGCTTAATTCGGAGTCACCTAGTGCAG,3160 fluorescence intensity (a.u.)
11,TAATTTAATATTCCTTGCAATCTACGCTGAGTTGGATTGCCGGAGTCACCTAGTGCAG,4890 fluorescence intensity (a.u.)
12,ACGCCACGTACGGGATACGGGAACGCGCCCCGGTCTCCTCCGGAGTCACCTAGTGCAG,4180 fluorescence intensity (a.u.)
13,GCCCTCTGCTTTACTTGACCCACGAGGACCACGACGTTGACGGAGTCACCTAGTGCAG,23100 fluorescence intensity (a.u.)
14,ATTCTTGCTTTGAACAAGCTAGCTGGCTTGTTACAGTTAACGGAGTCACCTAGTGCAG,7060 fluorescence intensity (a.u.)
15,GCGAGGCTGCGACTCCAAAAGATGGCGTGTCGCTGCTGCGCGGAGTCACCTAGTGCAG,4880 fluorescence intensity (a.u.)
16,CGCTGTGGTGTGCAGCGGCGGTGCCACGTCCCTATTTAAACGGAGTCACCTAGTGCAG,10900 fluorescence intensity (a.u.)
17,ATCTCCAAAATCAGTTTAACATCGCCTAATCCACGTCGGTCGGAGTCACCTAGTGCAG,8120 fluorescence intensity (a.u.)
18,GAACACGAGGGCCCACATGTCAGTGACACAACCTCCCTACCGGAGTCACCTAGTGCAG,3710 fluorescence intensity (a.u.)
19,TGCCCGGTCGATTGATCAGCAGGTTGACGCAGGATGGCGACGGAGTCACCTAGTGCAG,3670 fluorescence intensity (a.u.)
20,AAGCGCCACGTTTCCCCGACGTCCACGTCCATTATCCGGCCGGAGTCACCTAGTGCAG,5910 fluorescence intensity (a.u.)
21,TCACCACACCTTATGCTTACGTGTAGTGTTAATAATGATTCGGAGTCACCTAGTGCAG,4830 fluorescence intensity (a.u.)

# Copied from the entries so far for reference:
row,Sequence,binding signal
7,ATCCGTTGAAATTTACACAAATAATCCCACTAAAATATATCGGAGTCACCTAGTGCAG,19300 fluorescence intensity (a.u.)
8,ATGGTTTGGAATTGTCACTACACTTTACTAAATTCATAGTCGGAGTCACCTAGTGCAG,3420 fluorescence intensity (a.u.)
9,AATCCGGTCCGTCCACGTGTAAACCGGCTCGGGTCGGGCTCGGAGTCACCTAGTGCAG,10200 fluorescence intensity (a.u.)
